In patent publication US20220033904A1:

Experiments:
[1] = molecular target: T1, USP8 (also called UBPy) (human) (UniProt P40818); experiment: tandem affinity purification (Flag then Myc) and mass spectrometry (FIG. 11A)
T1 sequence (looked up): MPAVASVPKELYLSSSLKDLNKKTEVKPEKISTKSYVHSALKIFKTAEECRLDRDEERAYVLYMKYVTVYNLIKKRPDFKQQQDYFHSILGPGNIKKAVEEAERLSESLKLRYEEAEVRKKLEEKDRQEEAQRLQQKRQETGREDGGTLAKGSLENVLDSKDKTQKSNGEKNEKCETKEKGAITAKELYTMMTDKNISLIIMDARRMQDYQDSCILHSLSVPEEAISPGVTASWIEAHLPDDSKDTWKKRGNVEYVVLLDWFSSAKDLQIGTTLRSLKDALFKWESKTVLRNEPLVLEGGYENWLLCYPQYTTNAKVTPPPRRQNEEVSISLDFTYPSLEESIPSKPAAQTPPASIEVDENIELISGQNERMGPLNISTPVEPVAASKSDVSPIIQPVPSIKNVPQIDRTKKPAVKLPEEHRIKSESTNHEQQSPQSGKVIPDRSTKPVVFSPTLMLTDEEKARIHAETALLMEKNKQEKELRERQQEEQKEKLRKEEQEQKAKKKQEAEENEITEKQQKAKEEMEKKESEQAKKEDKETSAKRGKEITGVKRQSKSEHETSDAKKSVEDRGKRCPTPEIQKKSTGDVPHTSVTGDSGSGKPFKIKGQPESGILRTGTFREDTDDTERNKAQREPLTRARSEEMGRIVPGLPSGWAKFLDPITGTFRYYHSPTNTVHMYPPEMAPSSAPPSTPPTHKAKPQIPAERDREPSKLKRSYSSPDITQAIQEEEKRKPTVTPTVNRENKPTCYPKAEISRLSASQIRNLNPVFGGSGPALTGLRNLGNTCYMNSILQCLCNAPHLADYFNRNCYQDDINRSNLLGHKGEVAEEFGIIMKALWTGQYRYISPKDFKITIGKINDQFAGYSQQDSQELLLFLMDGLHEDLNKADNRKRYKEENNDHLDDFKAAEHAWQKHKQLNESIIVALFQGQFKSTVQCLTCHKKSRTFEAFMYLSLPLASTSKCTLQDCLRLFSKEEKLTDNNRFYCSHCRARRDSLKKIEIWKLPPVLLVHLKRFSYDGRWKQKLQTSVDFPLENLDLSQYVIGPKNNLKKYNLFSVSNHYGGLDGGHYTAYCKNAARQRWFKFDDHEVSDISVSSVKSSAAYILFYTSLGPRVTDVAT

[2] = molecular target: T1, USP8 (also called UBPy) (human); experiment: tandem affinity purification and mass spectrometry (FIG. 11A)

binding [1]: binds
binding [2]: binds
B1: TMEM79-Myc-Flag (protein, not shown: small tags and cut ends)
chain: MTEPETLALLDMKEPETPEKSPPQALVLQSEEEGGTESPGTESLRVGSSVGSPIVREGPEDGPDSTISEAATLPWGTDPHPSAPLPDPPGWRDIEPEPLESEAPTKSEEPFKEDANLLPEKTVRAFVPIDLQCIERKPQEERILHRDAGPGELRNFLPARLSHPEPPERKWAEAVVRPPGRSCGGCGSCGGREALRAVASVVAALIFFPCLLYGAYAFLPFDAPRLPTMSSRLVYTLRCGVFATFPIVLGLLVYGLSLLCFSALRPFGEPRREVEIHRQYVAQSVQLFILYFFNLAVLSTYLPQDTLKLLPLLTGLFAISRLIYWLTFAVGRSFRGFGYGLTFLPLLAMLVWNLYYMFVVEPERMLTASESRLDYPDHARSVSDYRPRSWG

Results are given in words; binding and its absence hold for the method and conditions named. Binding seen in cells or lysates may run through a third protein. These calls come from enrichment with a bait or labelling near it, and not all partners need be listed. Sequences can lack the tags named with a protein.
